In paper PMC4183429:
Results are given in words; binding and its absence hold for the method and conditions named. In cells and extracts the contact can be indirect. Some results given as binding are weak or reduced against the parent protein; the word gives no strength.

By UniProt entry, the sequences of proteins in these tests, tags left out.
UniProt P32447: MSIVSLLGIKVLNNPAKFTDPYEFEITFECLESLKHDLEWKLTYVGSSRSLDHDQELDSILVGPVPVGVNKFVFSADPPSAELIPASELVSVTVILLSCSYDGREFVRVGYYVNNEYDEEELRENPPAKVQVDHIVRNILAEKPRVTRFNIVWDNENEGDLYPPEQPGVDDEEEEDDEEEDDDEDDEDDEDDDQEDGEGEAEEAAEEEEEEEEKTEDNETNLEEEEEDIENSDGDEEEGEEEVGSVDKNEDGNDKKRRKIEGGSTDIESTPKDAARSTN
UniProt P22216: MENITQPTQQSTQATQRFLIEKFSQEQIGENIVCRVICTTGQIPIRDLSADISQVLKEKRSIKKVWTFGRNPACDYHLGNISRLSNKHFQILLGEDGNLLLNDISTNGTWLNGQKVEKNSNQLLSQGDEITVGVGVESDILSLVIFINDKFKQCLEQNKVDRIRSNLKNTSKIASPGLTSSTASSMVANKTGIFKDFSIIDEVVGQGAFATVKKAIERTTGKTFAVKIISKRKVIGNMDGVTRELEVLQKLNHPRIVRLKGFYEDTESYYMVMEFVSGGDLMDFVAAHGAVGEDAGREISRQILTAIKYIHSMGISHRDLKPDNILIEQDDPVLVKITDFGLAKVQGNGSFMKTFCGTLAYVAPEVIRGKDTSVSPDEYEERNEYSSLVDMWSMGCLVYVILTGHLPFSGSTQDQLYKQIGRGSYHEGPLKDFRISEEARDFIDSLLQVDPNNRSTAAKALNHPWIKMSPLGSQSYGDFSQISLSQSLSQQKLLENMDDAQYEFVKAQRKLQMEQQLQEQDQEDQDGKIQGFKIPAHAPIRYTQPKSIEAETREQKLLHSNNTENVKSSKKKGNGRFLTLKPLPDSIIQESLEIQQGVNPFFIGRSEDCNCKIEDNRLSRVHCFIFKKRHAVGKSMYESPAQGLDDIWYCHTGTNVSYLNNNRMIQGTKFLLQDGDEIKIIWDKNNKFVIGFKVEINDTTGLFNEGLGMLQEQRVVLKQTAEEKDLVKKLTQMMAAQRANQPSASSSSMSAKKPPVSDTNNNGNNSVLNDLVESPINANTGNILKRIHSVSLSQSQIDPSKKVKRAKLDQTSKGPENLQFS

Target: Asf1-3×HA (S. cerevisiae) (UniProt P32447)
Experiment: co-IP; anti-HA-protein G beads precipitate Asf1-3×HA from 5 mg protein extract of WT or htb-K123R cells, untreated or treated with 0.2M HU for 90 minutes; 50 mM Tris 7.5, 150 mM NaCl, 5 mM EDTA, 0.5% Triton X-100; 4°C; blot with anti-Rad53

- binding: binds
Substance: Rad53 (from UniProt P22216 1-821)
